# Test results taken from PubChem BioAssay AID2417 (National Center for Advancing Translational Sciences (NCATS), 2010).
# About 4,300 (3.1%) of roughly 140,000 compounds were called active. Inconclusive results, whose numbers are uncertain, are shown with a selection of clear calls.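 How the source made its calls: active means readout at or below -70, meaning at least 70% loss of cells showing the perinucleolar compartment, a nuclear body marking cancer cells; inconclusive means readout between -30 and a set limit; inactive means the rest.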
# Assay: High Content Assay for Compounds that inhibit the Assembly of the Perinucleolar Compartment;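 further: plate controls were DMSO wells for no effect and camptothecin positive control wells for full effect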
# Details: PC3M PTB-GFP, PNC prevalence imaging, 16 h; at 10 µM; hits give low values
# Summary of the method: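 Read-out is percentage of cells bearing a perinucleolar compartment, from automated 20x imaging of fixed, Hoechst-stained PC3M PTB-GFP cells. Cells were seeded 4 h, then exposed 16 h to compound (23 nl of library stock) in duplicate plates.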
row,Compound,"activity change (PNC), negative = inhibition"
1,CCCCSc1cnn(-c2ccccc2)c(=O)c1SCCCC,active: -80.8%
2,CC(C)(C)OC(=O)NCc1nc(N)n[nH]1,active: -100%
3,CCOC(=O)CN(C(=O)CSc1nnc(-c2ccc(OC)c(OC)c2)o1)c1ccccc1,inconclusive: -58%
4,Cc1[nH]nc2c1C(c1ccc(OC(=O)c3ccco3)cc1)C(C#N)=C(N)O2 (stereo unspecified),inactive: 56.2%
5,C/C(=N\Nc1ccc([N+](=O)[O-])cc1[N+](=O)[O-])c1ccc(-n2nncc2C(C)(C)C)cc1,inconclusive: -36.9%
6,O=C(O)c1cccc(N2CCCC2=O)c1,inactive: 24.8%
7,CCc1ccccc1NC(=O)CC1CS(=O)(=O)CC1CC(=O)Nc1ccccc1CC (stereo unspecified),inconclusive: -50.4%
8,CC(=O)Nc1ccc(SCC(=O)c2cc(C)n(C)c2C)cc1,inactive: -18.5%
9,CCOC(=O)C(=O)/C(=C\N(C)C)c1onc(-c2c(Cl)cccc2Cl)c1C(=O)OC,inconclusive: -41%
10,CC(=O)c1ccc(NC(=S)N2C(C)CCCC2C)cc1 (stereo unspecified),inactive: 13.2%
11,Cc1ccc(O)c(NC(=O)CCCC(=O)O)c1,active: -101%
12,CN(C)S(=O)(=O)c1cccc(C(=O)NC2CCCc3ccccc32)c1 (stereo unspecified),inconclusive: -52.3%
13,CC(C)(C)SCCNC(=O)Nc1ccccc1,inactive: -2.25%
14,COc1ccc(/C=N/NC(=O)c2ccc(N(C)S(=O)(=O)c3ccccc3)cc2)cc1OC,inactive: 7.03%
15,CCOc1cc(NC(=S)Nc2cccc(OC)c2)c(OCC)cc1NC(=O)c1ccc(C)cc1,inactive: 14%
16,CCOc1ccccc1-n1c(SCC(=O)NC2CCCC2)nnc1-c1ccoc1C,inconclusive: -30%
17,O=C(O)CC/C(=N\Nc1ccc(S(=O)(=O)N2CCCC2)cc1[N+](=O)[O-])c1cccs1,inconclusive: -35%
18,CN1CCN(C(=O)c2ccccc2NC(=O)CCN2C(=O)c3ccccc3C2=O)CC1,inconclusive: -44.2%
19,COc1cccc(NS(=O)(=O)c2ccc(S(=O)(=O)N3CCOCC3)cc2)c1,inconclusive: -37.3%
20,Cc1csc(NC(=O)c2cc(-c3ccccc3)nc3ccccc23)n1,inactive: -27.8%
21,O=C(Cc1ccccc1)NCCCN1CCN(CCCNC(=O)Cc2ccccc2)CC1,inconclusive: -37.8%
22,Nc1cc(CN2C(=O)c3ccccc3C2=O)cc(Cl)c1O,inconclusive: -54.4%
23,O=C(NCCOc1nc(N2CCCCC2)nc(N2CCOCC2)n1)Nc1ccccc1,active: -107%

# Arranged by molecular weight (low to high): some entries from above
row,Compound,"activity change (PNC), negative = inhibition"
13,CC(C)(C)SCCNC(=O)Nc1ccccc1,inactive: -2.25%
22,Nc1cc(CN2C(=O)c3ccccc3C2=O)cc(Cl)c1O,inconclusive: -54.4%
21,O=C(Cc1ccccc1)NCCCN1CCN(CCCNC(=O)Cc2ccccc2)CC1,inconclusive: -37.8%

# The results go on:

row,Compound,"activity change (PNC), negative = inhibition"
1,COc1ccc(N2CCN(CCCNC(=O)CN3CCN(Cc4ccccc4C)C3=O)CC2)cc1,inconclusive: -47.9%
2,Cc1cc(C)nc(SCNC(=O)c2ccc(F)cc2)n1,inactive: 47.8%
3,CC(C)CCNC(=O)c1ccc2c(SCC(=O)O)c3c(nc2c1)CCCC3,inactive: 3.26%
4,O=C(c1cccc(S(=O)(=O)N2CCc3ccccc3C2)c1)N1CCN(c2ccccc2)CC1,inconclusive: -35.5%
5,CC(C)c1nnc(NC(=O)CCC(=O)NC2CCCCCCC2)s1,inconclusive: -33.4%
6,CC(=O)c1c(N)[nH]c(-c2ccccc2)nc1=S,inconclusive: -34.2%
7,COc1ccc(NC(=S)N2CCNC(=O)C2CC(=O)Nc2ccc(C)cc2)cc1 (stereo unspecified),inactive: -22%
8,CCOc1ccc(C2=NNC(c3cccs3)=Nc3ccc(OC)cc32)cc1OCC,active: -100%
9,COc1ccccc1N1CCN(c2ncnc3nc[nH]c23)CC1,inactive: 23%
10,O=C(NCc1ccccc1)c1ccc2nccnc2c1,inconclusive: -69%
11,COc1cccc2cc(-c3nnc(SCC(=O)Nc4nc(C)cs4)n3C)oc12,inconclusive: -33.5%
12,COc1ccc(-n2ncc3c(NCCN4CCOCC4)ncnc32)cc1,inconclusive: -38.3%
13,O=C(C1CCC(CNc2c(N3CCOCC3)c(=O)c2=O)CC1)N1CCN(c2ccccc2)CC1 (stereo unspecified),inactive: 30%
14,CCc1ccccc1NC(=S)NC1CC2CCCC(C1)N2Cc1cccs1 (stereo unspecified),inconclusive: -47.2%
15,COc1ccc(C2C(C(C)=O)=C(O)C(=O)N2c2nccs2)cc1OC (stereo unspecified),inactive: -3.82%
16,COc1cccc2c(=O)c3c(cnn3C)n(C)c12,inconclusive: -54.6%
17,S=C1NC(c2ccccc2)N2C(=S)NC(c3ccccc3)N12 (stereo unspecified),inconclusive: -52%
18,CCOC(=O)c1cnc(SCC(=O)Nc2nc(C)c(C)s2)nc1N,inconclusive: -40.7%
19,O=C1CCCN1CCC1CCN(C2CC(=O)N(c3ccc(F)cc3)C2=O)CC1 (stereo unspecified),active: -112%
20,C[C@@H]1CC[C@H]2C(=O)N3[C@@H](CC[C@@H](C)[C@@H]3c3ccc(Br)cc3)C(=O)N2[C@H]1c1ccc(Br)cc1,inactive: 27.2%
21,COc1ccccc1N1CCN(S(=O)(=O)c2cccc3nsnc23)CC1,inconclusive: -41.6%
22,Cc1nn(C(C)C(=O)NNC(=S)Nc2ccc(F)cc2)c(C)c1[N+](=O)[O-] (stereo unspecified),inconclusive: -41.7%
23,C=CCSC1=N/C(=C\c2cc(OCC)c(OC(C)=O)c([N+](=O)[O-])c2)C(=O)S1,active: -116%

row,Compound,"activity change (PNC), negative = inhibition"
1,O=C(N1CCN(Cc2ccccc2)CC1)C(Cl)(Cl)Cl,inconclusive: -34.4%
2,C=CCn1c(SCC(=O)Nc2c(C)n(C)n(-c3ccccc3)c2=O)nc2sc(C)c(-c3ccccc3)c2c1=O,inconclusive: -46.6%
3,CC1(C)CC(=O)C(C=NCCN2CCN(C(=O)c3ccc(F)cc3)CC2)=C(O)C1,inconclusive: -34.3%
4,CSc1nnc2c3c4c(sc3c(=O)n(-c3ccccc3)n12)CC(C)(C)OC4,inconclusive: -50.9%
5,CCCS(=O)(=O)c1c(S(=O)(=O)CCC)c2c(N)cccn2c1C(=O)c1ccc(F)cc1,inconclusive: -51.5%
6,C=CCSc1nc2nc(C)cc(C)n2n1,inconclusive: -59.7%
7,O=c1[nH]n(-c2ccc(Cl)cc2)c2ncccc12,inactive: 2.75%
8,Cc1ccc(S(C)(=O)=O)cc1S(=O)(=O)Nc1cccc(Cl)c1,active: -112%
9,N#C/C(=C\c1ccco1)c1nc2ccccc2s1,inconclusive: -42.5%
10,CCc1nnc(NC(=O)c2nc3nc(C)cc(C)n3n2)s1,inconclusive: -71.3%
11,O=C(CN(Cc1ccco1)C(=O)CCC(=O)Nc1nccs1)NCc1ccccc1,inconclusive: -64%
12,C/C(=N/NC(=O)CN1CCN(Cc2ccccc2Cl)CC1)c1ccncc1,inconclusive: -32.2%
13,Cc1cc(C)n2nc(SCC(=O)N(C)Cc3ccccc3)nc2n1,inconclusive: -51.8%
14,N#CC1=C(N)Oc2cc3ccccc3cc2C1c1cccnc1 (stereo unspecified),active: -89.5%
15,Cc1ccc(CCNC(=O)CN(C)S(=O)(=O)c2ccc3c(c2)c(=O)n(C)c(=O)n3C)cc1,inactive: 0.843%
16,O=C(Nc1cc2c(oc1=O)CCCC2=O)c1cccc(Cl)c1,active: -106%
17,O=C(CCCC(=O)N1CCN(c2ccccc2F)CC1)N1CCN(c2ccccc2F)CC1,inconclusive: -45.5%
18,Cc1cc(NC(=O)CSc2n[nH]c(CC(C)C)n2)no1,inconclusive: -46.4%
19,CC(=O)/C=C\c1cn(-c2ncc(C(F)(F)F)cc2Cl)c2ccccc12,active: -124%
20,O=C(CCc1ccc(S(=O)(=O)N2CCOCC2)cc1)N/N=C/c1cccc(O)c1,inactive: -11.6%
21,CCCc1n[nH]c(=O)[nH]1,inactive: 37.6%
22,Nc1c(C(=O)O)nnn1Cc1ccccc1,inconclusive: -42.7%
23,O=C(NCCCN1CCOCC1)C1CCC(=O)N1C1CCCCC1 (stereo unspecified),inconclusive: -58.7%

row,Compound,"activity change (PNC), negative = inhibition"
1,COc1ccc(/C=N/NC(=O)CCn2c3ccccc3c3ccccc32)cc1O,inactive: -11.1%
2,Cc1cccc(-n2cc[nH]c2=S)c1,inactive: 43.9%
3,COc1cc(CNCc2ccco2)ccc1OCc1ccccc1,inconclusive: -44.5%
4,Cc1ccc(C2SCC(C(=O)O)N2C(=O)c2ccc(F)cc2)cc1 (stereo unspecified),inconclusive: -32.1%
5,CCCCCCCCNC(=O)/C(C#N)=C/c1ccccc1[N+](=O)[O-],inconclusive: -50.2%
6,Cc1occc1C(=O)N/N=C/c1c[nH]c2ccccc12,inactive: 15.6%
7,O=C(Nc1ccccc1)c1cccc(-c2nnc(-c3ccccc3)o2)c1,inactive: 6.43%
8,COc1ccc(-c2cc(-n3c(C(F)(F)F)nc4ccccc43)n(CCC#N)n2)cc1,inconclusive: -38.2%
9,CCN1C(=O)/C(=C/c2cc(C)n(C)c2C)SC1=Nc1ccc(OC)cc1,inconclusive: -65.7%
10,COC(=O)c1nc2nc(C)cc(=O)n2[nH]1,inconclusive: -36.4%
11,Cc1ccc(N(CC(=O)NCc2cccs2)S(=O)(=O)c2cccs2)cc1,active: -83.5%
12,CCCc1cc(C(N)=O)c(NC(C)=O)s1,inactive: -16.6%
13,O=C(CN1C(=O)C2C3CCC(C3)C2C1=O)Oc1ccc2ccccc2c1 (stereo unspecified),inconclusive: -67.3%
14,COCCn1c(=O)[nH]c2cc(C(=O)OC)ccc2c1=O,inconclusive: -50.7%
15,Cc1nn(C)cc1NC(=O)c1ccc(Br)o1,inconclusive: -33.1%
16,S=C(Nc1cccc(Cl)c1)Nc1ccccc1Oc1ccccc1,inactive: 2.86%
17,Cn1c(NCc2ccccc2O)nc2ccccc21,inactive: -14.3%
18,CCOc1ccccc1NC(=O)C(OC(=O)c1ccc(CC)cc1)c1ccccc1 (stereo unspecified),inactive: -11.9%
19,CC(C)NC(=O)C(=O)NNC(=O)C12CC3CC(CC(C3)C1)C2,inconclusive: -43.9%
20,CCCCCc1c(C)nc(Nc2ccc(F)cc2)[nH]c1=O,inconclusive: -58%
21,Cc1nnsc1SCCNC(=O)c1ccc(F)cc1,inconclusive: -45.8%
22,Cc1ccsc1CN1CCN(c2ccccn2)CC1,inconclusive: -35.6%

# Among those listed so far, two contain a CF3 group:
row,Compound,"activity change (PNC), negative = inhibition"
19,CC(=O)/C=C\c1cn(-c2ncc(C(F)(F)F)cc2Cl)c2ccccc12,active: -124%
8,COc1ccc(-c2cc(-n3c(C(F)(F)F)nc4ccccc43)n(CCC#N)n2)cc1,inconclusive: -38.2%
